Results are given in words; binding and its absence hold for the method and conditions named. Binding seen in cells or lysates may run through a third protein. Here binding means that the protein was enriched with, or labelled near, the bait; the list need not be complete.
Biological target: GST-PICK1 full-length (UniProt Q9EP80)
Test: affinity purification with mass spectrometry; proteomics screen following GST-pulldowns using GST-PICK1 as bait; source of the sample not told; only the target purified

By UniProt entry, the sequences of proteins in these tests, tags left out.
UniProt Q9EP80: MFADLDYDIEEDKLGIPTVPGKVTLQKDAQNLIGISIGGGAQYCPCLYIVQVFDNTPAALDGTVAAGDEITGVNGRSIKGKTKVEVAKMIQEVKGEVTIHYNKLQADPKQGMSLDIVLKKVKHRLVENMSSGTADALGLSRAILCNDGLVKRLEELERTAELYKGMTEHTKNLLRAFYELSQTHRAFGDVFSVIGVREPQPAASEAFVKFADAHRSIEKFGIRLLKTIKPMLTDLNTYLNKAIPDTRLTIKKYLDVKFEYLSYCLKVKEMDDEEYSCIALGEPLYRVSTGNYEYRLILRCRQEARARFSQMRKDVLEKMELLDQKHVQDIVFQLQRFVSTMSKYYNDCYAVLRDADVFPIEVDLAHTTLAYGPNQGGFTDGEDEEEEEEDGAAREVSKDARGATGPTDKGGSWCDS
UniProt Q9UKV8: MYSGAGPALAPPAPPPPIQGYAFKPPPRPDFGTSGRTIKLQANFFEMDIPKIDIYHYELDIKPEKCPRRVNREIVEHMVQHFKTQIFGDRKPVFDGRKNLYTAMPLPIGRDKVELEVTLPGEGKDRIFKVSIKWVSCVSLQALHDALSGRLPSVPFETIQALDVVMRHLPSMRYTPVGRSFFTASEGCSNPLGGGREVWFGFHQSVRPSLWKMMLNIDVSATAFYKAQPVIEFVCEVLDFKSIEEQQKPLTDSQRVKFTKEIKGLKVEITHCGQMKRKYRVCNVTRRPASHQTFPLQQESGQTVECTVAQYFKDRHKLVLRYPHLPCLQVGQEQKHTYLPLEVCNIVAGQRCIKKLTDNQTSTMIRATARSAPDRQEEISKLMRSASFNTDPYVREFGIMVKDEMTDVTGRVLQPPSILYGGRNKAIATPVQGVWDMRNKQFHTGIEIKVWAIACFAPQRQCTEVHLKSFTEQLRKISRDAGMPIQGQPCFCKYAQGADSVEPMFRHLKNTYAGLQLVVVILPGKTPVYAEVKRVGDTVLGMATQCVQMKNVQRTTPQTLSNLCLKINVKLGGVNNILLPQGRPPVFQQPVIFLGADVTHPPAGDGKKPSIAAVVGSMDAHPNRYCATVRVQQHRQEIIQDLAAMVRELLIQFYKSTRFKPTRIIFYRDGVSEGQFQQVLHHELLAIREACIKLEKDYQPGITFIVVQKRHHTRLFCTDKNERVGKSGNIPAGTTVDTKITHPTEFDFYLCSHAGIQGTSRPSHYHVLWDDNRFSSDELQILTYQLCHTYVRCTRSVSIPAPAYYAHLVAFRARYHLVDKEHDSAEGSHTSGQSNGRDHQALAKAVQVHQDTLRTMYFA

For “Ago2 identified in the proteomics screen (from UniProt Q9UKV8 1-859)”, the binding was “binds”.

— article PMC4210090
